Results published in paper doi:10.1101/2024.03.04.583394.
Construct, isoform or probe ends are uncertain for at least one entry. For some assays here: No signal at the amounts used counts as a negative.

Experiments:
[1] = tested on: GST-OsPLATZ3 (Oryza sativa); experiment: EMSA; conditions: excess unlabelled probe weakened binding
[2] = tested on: GST-OsPLATZ3 (Oryza sativa); experiment: competition with a labelled probe; conditions: text: failed to bind mutant probe, Table S1 lists it as mutant cold probe

| Sequence | binding result [1] | binding result [2] |
| --- | --- | --- |
| TATTTAAATAGAAATAAAATGATTTATTCA (double strand) [OsAPX9 promoter AT-rich probe (hot/cold probe)] | binds |  |
| TATTTCCCTAGCCCTCCCCTGCTTTCTTCC (double strand) [OsAPX9 promoter mutant probe (mutant cold probe)] |  | no binding |
